This note sets out measurements from patent US20110117106A1, “USES OF CALPAIN INHIBITORS TO INHIBIT INFLAMMATION” (priority 2008, published 2011).

Amino acid sequences for entries named in this document (tags omitted). Residues count along the entry.
UniProt P12830, residues 155-882: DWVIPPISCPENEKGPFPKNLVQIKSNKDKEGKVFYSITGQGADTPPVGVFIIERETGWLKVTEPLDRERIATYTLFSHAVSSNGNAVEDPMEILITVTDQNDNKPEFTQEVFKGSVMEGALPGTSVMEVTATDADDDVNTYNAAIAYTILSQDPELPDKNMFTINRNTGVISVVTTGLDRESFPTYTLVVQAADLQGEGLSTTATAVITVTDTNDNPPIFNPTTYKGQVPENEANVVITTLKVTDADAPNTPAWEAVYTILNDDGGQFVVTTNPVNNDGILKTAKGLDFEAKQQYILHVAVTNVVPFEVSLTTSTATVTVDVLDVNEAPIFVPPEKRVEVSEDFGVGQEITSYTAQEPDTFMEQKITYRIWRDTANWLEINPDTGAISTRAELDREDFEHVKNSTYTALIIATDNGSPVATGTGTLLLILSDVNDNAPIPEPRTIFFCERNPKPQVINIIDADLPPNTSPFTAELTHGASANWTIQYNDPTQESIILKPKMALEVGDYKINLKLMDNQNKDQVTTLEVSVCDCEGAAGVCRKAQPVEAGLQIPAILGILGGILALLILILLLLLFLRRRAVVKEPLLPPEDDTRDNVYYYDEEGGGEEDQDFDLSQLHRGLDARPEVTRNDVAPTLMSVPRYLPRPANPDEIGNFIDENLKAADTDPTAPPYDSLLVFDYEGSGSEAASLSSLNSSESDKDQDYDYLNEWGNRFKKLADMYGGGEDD
UniProt P17655, residues 2-700: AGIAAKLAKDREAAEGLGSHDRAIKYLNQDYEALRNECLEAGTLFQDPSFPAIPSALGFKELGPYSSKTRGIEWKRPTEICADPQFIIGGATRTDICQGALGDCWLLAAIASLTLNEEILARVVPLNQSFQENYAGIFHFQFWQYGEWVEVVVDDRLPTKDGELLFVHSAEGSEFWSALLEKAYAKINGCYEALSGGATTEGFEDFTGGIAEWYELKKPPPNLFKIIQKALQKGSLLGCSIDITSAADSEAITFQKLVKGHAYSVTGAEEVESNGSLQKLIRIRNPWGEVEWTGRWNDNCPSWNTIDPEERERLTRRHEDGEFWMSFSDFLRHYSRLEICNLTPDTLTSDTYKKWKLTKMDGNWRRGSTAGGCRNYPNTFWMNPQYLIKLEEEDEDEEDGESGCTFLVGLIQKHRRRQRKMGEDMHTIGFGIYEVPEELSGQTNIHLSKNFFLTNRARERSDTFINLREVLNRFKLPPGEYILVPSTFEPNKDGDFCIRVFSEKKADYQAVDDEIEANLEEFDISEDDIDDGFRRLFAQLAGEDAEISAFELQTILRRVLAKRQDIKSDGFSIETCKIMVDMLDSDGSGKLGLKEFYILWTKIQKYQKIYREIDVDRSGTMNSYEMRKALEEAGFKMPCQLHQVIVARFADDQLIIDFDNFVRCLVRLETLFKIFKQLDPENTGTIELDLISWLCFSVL

Results are given in words; binding and its absence hold for the method and conditions named. Binding seen in cells or lysates may run through a third protein. Some binding calls cover weakened binding; strength is not graded here.

The target of the experiment is E-cadherin (human) (UniProt P12830). Briefly: co-immunoprecipitation and confocal imaging, human airway epithelial cells stimulated with TLR2 ligands.

As to “calpain 2 (m-calpain) (from UniProt P17655 2-700) (enzyme)”, the binding result is listed as “binds”.
